# The list shows a part of the results.
# Sequences of proteins named here, by UniProt entry; tags and fusion partners are left off. A change or cut given only in a name is not applied to a line headed by its entry.
# UniProt O94763, whole entry, looked up: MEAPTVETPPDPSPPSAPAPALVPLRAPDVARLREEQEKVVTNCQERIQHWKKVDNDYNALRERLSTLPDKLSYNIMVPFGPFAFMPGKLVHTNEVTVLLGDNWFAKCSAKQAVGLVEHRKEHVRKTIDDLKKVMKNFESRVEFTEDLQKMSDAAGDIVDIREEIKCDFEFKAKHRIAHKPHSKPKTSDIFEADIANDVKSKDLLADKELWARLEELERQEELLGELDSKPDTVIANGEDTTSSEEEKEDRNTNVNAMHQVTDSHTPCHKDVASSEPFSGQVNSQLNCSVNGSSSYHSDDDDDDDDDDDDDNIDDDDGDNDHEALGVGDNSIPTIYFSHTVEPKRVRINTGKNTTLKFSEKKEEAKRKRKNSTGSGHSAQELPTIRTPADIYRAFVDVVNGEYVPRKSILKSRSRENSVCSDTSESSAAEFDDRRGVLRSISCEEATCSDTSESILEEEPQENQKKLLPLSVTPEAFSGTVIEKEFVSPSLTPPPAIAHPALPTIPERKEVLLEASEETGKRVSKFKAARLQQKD
# UniProt Q9NVA1: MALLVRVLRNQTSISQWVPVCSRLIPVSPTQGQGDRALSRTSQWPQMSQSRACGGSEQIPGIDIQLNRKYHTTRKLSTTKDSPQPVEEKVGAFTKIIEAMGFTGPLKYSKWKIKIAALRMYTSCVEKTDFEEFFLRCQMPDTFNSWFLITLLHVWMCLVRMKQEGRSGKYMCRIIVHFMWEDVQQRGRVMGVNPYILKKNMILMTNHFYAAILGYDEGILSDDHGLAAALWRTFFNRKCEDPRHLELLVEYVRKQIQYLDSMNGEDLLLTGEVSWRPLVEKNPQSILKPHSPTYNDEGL
# UniProt Q9NZI7: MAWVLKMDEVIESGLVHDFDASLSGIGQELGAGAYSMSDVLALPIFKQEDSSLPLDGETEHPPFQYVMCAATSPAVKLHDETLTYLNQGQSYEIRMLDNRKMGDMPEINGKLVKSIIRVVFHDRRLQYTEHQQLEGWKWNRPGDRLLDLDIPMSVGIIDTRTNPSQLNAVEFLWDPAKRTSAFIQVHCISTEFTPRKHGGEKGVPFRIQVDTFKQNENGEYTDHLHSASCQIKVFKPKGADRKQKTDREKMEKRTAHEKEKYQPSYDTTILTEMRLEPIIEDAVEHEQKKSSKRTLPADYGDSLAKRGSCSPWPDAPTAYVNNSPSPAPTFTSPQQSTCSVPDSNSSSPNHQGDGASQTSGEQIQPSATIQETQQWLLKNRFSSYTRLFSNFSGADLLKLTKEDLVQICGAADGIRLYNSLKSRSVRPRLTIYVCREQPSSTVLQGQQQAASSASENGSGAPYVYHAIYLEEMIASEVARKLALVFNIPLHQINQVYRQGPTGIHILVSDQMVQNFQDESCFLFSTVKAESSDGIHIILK
# UniProt Q9P2Y5: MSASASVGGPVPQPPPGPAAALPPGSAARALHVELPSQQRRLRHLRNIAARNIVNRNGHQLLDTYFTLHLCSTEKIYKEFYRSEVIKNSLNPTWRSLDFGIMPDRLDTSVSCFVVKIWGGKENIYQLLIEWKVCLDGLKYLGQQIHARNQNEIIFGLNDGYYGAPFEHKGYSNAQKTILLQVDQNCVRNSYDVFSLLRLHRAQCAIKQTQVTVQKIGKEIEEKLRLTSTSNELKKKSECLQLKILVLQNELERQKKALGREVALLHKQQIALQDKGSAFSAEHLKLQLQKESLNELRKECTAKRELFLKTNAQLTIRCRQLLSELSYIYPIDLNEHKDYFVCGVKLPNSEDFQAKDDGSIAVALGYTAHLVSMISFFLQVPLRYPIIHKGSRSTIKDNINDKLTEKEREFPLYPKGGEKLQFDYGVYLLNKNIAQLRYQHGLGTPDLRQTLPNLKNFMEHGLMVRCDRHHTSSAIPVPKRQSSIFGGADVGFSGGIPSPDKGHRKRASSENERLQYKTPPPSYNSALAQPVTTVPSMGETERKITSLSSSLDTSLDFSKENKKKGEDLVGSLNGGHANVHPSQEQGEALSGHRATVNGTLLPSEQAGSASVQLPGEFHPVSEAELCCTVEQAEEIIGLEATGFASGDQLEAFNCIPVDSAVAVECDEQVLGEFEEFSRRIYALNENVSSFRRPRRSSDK
# UniProt P40818: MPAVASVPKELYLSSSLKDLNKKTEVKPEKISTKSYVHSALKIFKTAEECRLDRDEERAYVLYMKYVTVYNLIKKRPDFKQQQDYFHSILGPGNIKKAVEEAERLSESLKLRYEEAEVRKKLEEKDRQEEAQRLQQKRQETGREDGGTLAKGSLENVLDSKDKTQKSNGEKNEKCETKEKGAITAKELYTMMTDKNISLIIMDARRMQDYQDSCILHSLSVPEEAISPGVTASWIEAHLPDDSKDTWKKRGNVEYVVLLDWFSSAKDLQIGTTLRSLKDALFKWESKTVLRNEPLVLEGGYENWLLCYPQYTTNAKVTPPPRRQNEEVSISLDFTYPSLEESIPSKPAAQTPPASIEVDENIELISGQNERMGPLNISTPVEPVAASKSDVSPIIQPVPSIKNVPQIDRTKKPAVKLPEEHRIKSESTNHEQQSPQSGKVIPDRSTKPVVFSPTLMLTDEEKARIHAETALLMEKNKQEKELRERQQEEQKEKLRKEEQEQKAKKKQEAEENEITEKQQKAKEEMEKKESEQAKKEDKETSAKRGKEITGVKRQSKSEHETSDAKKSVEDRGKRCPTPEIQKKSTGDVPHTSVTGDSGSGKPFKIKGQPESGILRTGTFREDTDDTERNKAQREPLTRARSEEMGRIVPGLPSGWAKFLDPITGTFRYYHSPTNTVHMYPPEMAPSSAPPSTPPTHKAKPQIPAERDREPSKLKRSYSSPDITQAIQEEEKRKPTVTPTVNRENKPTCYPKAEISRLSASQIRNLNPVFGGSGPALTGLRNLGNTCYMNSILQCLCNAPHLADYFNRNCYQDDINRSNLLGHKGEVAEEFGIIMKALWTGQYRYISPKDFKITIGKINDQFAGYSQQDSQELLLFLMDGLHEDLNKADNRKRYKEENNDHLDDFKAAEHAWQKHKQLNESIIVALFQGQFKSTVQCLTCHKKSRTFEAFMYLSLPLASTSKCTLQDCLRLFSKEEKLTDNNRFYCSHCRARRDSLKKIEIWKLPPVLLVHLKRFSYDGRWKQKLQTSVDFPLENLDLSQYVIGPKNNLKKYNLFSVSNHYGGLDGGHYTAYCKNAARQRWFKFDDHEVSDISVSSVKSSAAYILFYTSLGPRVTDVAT
# UniProt Q04323: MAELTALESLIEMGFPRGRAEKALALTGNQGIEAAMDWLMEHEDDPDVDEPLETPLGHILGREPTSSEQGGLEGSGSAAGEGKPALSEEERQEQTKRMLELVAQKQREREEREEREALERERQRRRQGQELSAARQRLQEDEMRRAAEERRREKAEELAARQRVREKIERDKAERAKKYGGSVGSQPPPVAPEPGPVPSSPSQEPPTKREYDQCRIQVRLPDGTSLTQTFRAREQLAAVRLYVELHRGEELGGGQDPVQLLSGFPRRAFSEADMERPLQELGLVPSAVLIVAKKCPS
# UniProt P31930: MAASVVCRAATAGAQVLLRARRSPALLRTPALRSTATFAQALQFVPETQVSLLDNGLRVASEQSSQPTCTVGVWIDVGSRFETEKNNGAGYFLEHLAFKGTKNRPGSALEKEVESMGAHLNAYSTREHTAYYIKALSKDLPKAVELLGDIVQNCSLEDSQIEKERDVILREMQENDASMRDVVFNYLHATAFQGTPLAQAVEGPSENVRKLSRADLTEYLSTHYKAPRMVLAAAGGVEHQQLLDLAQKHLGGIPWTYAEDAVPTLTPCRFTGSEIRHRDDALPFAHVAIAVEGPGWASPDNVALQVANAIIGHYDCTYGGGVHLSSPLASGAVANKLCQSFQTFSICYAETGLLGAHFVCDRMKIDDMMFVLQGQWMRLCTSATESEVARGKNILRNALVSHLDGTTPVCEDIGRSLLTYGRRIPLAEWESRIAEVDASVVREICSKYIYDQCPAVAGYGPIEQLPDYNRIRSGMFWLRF
# UniProt O75379: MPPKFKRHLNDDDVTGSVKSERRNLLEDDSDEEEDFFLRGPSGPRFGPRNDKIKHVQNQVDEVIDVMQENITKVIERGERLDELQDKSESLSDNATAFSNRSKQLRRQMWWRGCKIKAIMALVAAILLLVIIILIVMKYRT
# UniProt P54578: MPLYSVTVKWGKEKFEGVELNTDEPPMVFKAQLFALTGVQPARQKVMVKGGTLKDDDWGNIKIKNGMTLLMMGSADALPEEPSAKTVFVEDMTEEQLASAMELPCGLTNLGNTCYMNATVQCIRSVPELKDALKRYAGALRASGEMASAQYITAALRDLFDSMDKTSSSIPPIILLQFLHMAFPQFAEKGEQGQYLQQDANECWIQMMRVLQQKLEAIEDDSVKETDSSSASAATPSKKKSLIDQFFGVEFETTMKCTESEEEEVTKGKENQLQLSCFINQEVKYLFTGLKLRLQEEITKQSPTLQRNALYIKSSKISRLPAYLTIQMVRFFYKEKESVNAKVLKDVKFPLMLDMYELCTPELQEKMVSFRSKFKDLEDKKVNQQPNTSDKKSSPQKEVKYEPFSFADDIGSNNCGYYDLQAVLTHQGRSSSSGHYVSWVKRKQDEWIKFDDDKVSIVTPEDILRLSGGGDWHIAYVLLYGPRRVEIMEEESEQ
# UniProt P61960, whole entry, looked up: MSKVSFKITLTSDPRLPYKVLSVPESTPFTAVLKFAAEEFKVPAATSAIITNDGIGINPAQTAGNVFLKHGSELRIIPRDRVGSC
# UniProt O60701: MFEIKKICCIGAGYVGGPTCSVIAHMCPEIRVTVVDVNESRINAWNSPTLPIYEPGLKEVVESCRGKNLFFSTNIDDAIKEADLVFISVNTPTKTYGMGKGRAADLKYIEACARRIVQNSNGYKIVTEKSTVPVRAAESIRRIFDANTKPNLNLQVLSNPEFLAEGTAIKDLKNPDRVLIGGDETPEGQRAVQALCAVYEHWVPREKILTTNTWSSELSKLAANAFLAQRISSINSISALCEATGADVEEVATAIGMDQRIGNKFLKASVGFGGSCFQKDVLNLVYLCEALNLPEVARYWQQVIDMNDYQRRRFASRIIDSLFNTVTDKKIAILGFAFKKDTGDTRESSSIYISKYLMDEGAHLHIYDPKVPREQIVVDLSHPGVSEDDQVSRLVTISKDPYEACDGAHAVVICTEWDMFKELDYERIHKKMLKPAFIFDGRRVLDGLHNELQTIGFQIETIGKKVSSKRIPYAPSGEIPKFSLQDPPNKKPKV
# UniProt Q9UHP3: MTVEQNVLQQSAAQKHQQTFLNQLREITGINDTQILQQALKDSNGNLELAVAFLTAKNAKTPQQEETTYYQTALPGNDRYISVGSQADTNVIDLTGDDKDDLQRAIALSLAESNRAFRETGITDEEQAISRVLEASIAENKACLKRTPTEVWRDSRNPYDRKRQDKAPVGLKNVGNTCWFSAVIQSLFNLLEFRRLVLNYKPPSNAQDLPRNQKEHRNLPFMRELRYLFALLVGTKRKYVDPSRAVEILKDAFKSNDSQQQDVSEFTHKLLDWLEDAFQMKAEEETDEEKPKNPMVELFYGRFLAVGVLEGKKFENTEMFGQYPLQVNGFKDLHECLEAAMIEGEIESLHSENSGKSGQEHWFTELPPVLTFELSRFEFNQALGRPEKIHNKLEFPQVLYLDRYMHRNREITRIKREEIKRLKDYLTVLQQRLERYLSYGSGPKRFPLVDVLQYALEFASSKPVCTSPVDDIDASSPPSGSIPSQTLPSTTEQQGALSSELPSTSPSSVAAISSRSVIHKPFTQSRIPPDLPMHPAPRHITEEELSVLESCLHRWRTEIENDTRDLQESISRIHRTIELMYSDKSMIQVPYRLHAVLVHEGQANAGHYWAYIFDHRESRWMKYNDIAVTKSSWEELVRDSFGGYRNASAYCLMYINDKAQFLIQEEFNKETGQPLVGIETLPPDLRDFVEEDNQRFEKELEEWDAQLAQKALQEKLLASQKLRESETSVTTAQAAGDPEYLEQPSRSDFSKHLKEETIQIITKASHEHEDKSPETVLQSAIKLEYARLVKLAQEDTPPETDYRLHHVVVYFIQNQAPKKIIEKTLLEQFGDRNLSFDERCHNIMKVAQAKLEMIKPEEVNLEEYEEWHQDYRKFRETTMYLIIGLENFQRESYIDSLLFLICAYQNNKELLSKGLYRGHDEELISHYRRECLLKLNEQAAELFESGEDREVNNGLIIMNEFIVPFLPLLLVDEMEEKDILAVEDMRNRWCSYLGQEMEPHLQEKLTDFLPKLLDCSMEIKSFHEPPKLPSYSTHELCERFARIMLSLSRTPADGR
# UniProt Q9Y5Z9: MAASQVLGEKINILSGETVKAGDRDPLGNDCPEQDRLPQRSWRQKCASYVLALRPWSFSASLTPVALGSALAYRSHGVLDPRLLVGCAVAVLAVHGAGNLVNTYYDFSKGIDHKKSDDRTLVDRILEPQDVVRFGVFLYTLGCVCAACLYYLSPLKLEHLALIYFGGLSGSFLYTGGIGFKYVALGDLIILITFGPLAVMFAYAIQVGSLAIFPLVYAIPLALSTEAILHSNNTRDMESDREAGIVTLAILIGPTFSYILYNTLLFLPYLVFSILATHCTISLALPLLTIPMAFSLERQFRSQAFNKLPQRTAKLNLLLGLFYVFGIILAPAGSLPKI
# Experiments:
# Test in all cases: log2 fold change, soluble protein after heating vs DMSO (PISA); higher = thermal stabilisation; K562 cells, 10 uM, 30 min; active = over 0.2 and 3.5 SD of the protein, either way, in both replicates (recomputed)
# [1] = compound: CN1CCN(CCOc2cc(OC3CCOCC3)c3c(Nc4c(Cl)ccc5c4OCO5)ncnc3c2)CC1 [saracatinib]
# Summary of the method: (§1)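 For each measurement, 10 μM compound was applied for 30 min to K562 cells at 2×10^6 cells/mL. Aliquots were heated for 3 min across 48°C-58°C, pooled, and extracted in PBS with 0.5% NP-40 at 4°C; the supernatant after 21,000xg for 90 min was soluble protein. This was quantified by TMTpro 16plex LC-MS/MS with channel sums equalised, and thermal stability was reported relative to control samples from duplicates, on a log2 fold-change scale.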
# [2] = compound: CN1CCN(c2nc(C3=C(c4c[nH]c5ccccc45)C(=O)NC3=O)c3ccccc3n2)CC1 [sotrastaurin]
# Summary of the method: as §1
# [3] = compound: CN1CC[C@H](c2c(O)cc(O)c3c(=O)cc(-c4ccccc4Cl)oc23)[C@H](O)C1 [alvocidib]
# Summary of the method: as §1
# [4] = compound: CN1CCc2c(c3ccccc3n2Cc2ccc(C(=O)NO)cc2)C1 [Tubastatin A]
# Summary of the method: as §1
# [5] = compound: CNC(=O)C1=CC=CC=C1NC2=NC(=NC=C2Cl)NC3=C(C=C(C=C3)N4CCOCC4)OC
# Summary of the method: as §1
# [6] = compound: CNC(=O)c1ccc(Nc2ncc(C(F)(F)F)c(NCc3nccnc3N(C)S(C)(=O)=O)n2)cc1 [defactinib]
# Summary of the method: as §1
# [7] = compound: CNCc1ccc(-c2[nH]c3cc(F)cc4c3c2CCNC4=O)cc1 [rucaparib]
# Summary of the method: as §1
# [8] = compound: CNc1nc(-c2ccc3c(N)n[nH]c3c2)cc(N2C[C@@H](C(=O)NC3CCCCC3)CC[C@H]2C)n1
# Summary of the method: as §1
# [9] = compound: COC(=O)N[C@@H](C)CNc1nccc(-c2cn(C(C)C)nc2-c2cc(Cl)cc(NS(C)(=O)=O)c2F)n1 [encorafenib]
# Summary of the method: as §1
# [10] = compound: COC(=O)[C@H](CCSC)NC(=O)C1=C(C=C(C=C1)NC[C@H](CS)N)C2=CC=CC=C2
# Summary of the method: as §1
Target,log2 fold change [1],log2 fold change [2],log2 fold change [3],log2 fold change [4],log2 fold change [5],log2 fold change [6],log2 fold change [7],log2 fold change [8],log2 fold change [9],log2 fold change [10]
URI1 isoform 4 (UniProt O94763),inactive: 0.083,inactive: -0.228,inactive: 0.027,inactive: 0.104,inactive: 0.071,inactive: 0.002,inactive: 0.143,inactive: -0.078,inactive: 0.101,inactive: 0.155
UQCC1 (UniProt Q9NVA1),inactive: 0.065,inactive: 0.019,inactive: -0.03,inactive: -0.024,inactive: 0.011,inactive: -0.024,inactive: -0.004,inactive: -0.033,inactive: -0.023,inactive: 0.019
UPF1 (UniProt Q92900),inactive: 0.009,inactive: 0.006,inactive: 0.051,inactive: 0.002,inactive: 0.014,inactive: 0.026,inactive: 0.024,inactive: -0.002,inactive: 0.005,inactive: -0.036
VAC14 (UniProt Q08AM6),inactive: 0.014,inactive: -0.012,inactive: -0.036,inactive: -0.037,inactive: -0.005,inactive: -0.012,inactive: -0.033,inactive: -0.054,inactive: 0.007,inactive: -0.014
UPF2 (UniProt Q9HAU5),inactive: -0.108,inactive: -0.038,inactive: 0.21,inactive: 0.073,inactive: -0.081,inactive: 0.354,inactive: 0.381,inactive: 0.115,inactive: 0.193,inactive: -0.002
UBP1 (UniProt Q9NZI7),inactive: -0.349,inactive: 0.018,inactive: -0.041,inactive: -0.062,–,inactive: 0.186,–,inactive: -0.143,–,inactive: 0.112
VAMP8 (UniProt Q9BV40),inactive: 0.06,inactive: 0.048,inactive: -0.027,inactive: -0.075,inactive: 0.016,inactive: 0.049,inactive: -0.037,inactive: -0.051,inactive: -0.034,inactive: 0.04
UVRAG (UniProt Q9P2Y5),inactive: 0.032,inactive: -0.017,inactive: -0.064,inactive: 0.02,inactive: -0.053,inactive: 0.075,inactive: -0.018,inactive: -0.022,inactive: -0.077,inactive: -0.073
USP8 (UniProt P40818),inactive: -0.129,inactive: -0.176,inactive: -0.009,inactive: 0.035,inactive: 0.042,inactive: -0.093,inactive: 0.091,inactive: 0.042,inactive: 0.118,inactive: -0.133
VAPA isoform 2 (UniProt Q9P0L0),inactive: 0.019,inactive: 0.025,inactive: 0.025,inactive: 0.003,inactive: 0.03,inactive: 0.001,inactive: -0.066,inactive: -0.019,inactive: 0.003,inactive: 0.061
USP5 (UniProt P45974),inactive: -0.024,inactive: 0.006,inactive: -0.102,inactive: 0.023,inactive: -0.014,inactive: -0.045,inactive: -0.058,inactive: 0.01,inactive: 0.013,inactive: -0.02
URGCP (UniProt Q8TCY9),inactive: 0.072,inactive: 0.052,inactive: -0.031,inactive: 0.098,inactive: 0.016,inactive: -0.058,–,inactive: -0.079,–,inactive: -0.102
UBXN1 (UniProt Q04323),inactive: 0.007,inactive: -0.075,inactive: -0.063,inactive: 0.045,inactive: -0.013,inactive: -0.041,inactive: 0.024,inactive: 0,inactive: -0.019,inactive: 0.005
UGCG (UniProt Q16739),inactive: -0.09,inactive: -0.127,inactive: 0.066,inactive: 0.01,inactive: 0.075,inactive: 0.074,inactive: 0.108,inactive: 0.052,inactive: -0.033,inactive: -0.029
UBL4A (UniProt P11441),inactive: 0,inactive: -0.033,inactive: -0.06,inactive: 0.016,inactive: 0.014,inactive: 0.003,inactive: 0.013,inactive: 0.006,inactive: 0.004,inactive: -0.018
USE1 (UniProt Q9NZ43),inactive: 0.075,inactive: -0.001,inactive: 0.001,inactive: -0.011,inactive: -0.02,inactive: -0.055,inactive: 0.094,inactive: 0.031,inactive: 0.036,inactive: -0.065

# 2 records drawn at random from those above, as already listed:
Target,log2 fold change [1],log2 fold change [2],log2 fold change [3],log2 fold change [4],log2 fold change [5],log2 fold change [6],log2 fold change [7],log2 fold change [8],log2 fold change [9],log2 fold change [10]
UBP1 (UniProt Q9NZI7),inactive: -0.349,inactive: 0.018,inactive: -0.041,inactive: -0.062,–,inactive: 0.186,–,inactive: -0.143,–,inactive: 0.112
URGCP (UniProt Q8TCY9),inactive: 0.072,inactive: 0.052,inactive: -0.031,inactive: 0.098,inactive: 0.016,inactive: -0.058,–,inactive: -0.079,–,inactive: -0.102

# Carrying on:

Target,log2 fold change [1],log2 fold change [2],log2 fold change [3],log2 fold change [4],log2 fold change [5],log2 fold change [6],log2 fold change [7],log2 fold change [8],log2 fold change [9],log2 fold change [10]
UQCRC1 (UniProt P31930),inactive: 0.013,inactive: 0.011,inactive: -0.006,inactive: -0.013,inactive: -0.032,inactive: -0.029,inactive: -0.004,inactive: -0.051,inactive: -0.033,inactive: 0.014
USP10 isoform 2 (UniProt Q14694),inactive: -0.022,inactive: 0.007,inactive: 0,inactive: 0.021,inactive: 0.012,inactive: 0,inactive: 0.11,inactive: -0.01,inactive: 0.019,inactive: -0.021
UIMC1 (UniProt Q96RL1),inactive: 0,inactive: 0.054,inactive: 0.193,inactive: 0.029,inactive: -0.016,inactive: 0.119,inactive: 0.192,inactive: 0.041,inactive: 0.019,inactive: 0.034
VBP1 (UniProt P61758),inactive: 0.028,inactive: 0.041,inactive: 0.015,inactive: -0.028,inactive: -0.019,inactive: -0.006,inactive: -0.022,inactive: -0.034,inactive: -0.028,inactive: 0.032
VAMP4 (UniProt O75379),inactive: 0.054,inactive: 0.049,inactive: 0.071,inactive: 0.036,inactive: -0.02,inactive: -0.029,inactive: 0.013,inactive: -0.08,inactive: -0.054,inactive: 0.056
UBL5 (UniProt Q9BZL1),inactive: 0.019,inactive: -0.034,inactive: 0,inactive: -0.01,inactive: 0.032,inactive: -0.101,inactive: -0.009,inactive: -0.053,inactive: 0.011,inactive: -0.069
USP14 (UniProt P54578),inactive: -0.007,inactive: -0.013,–,inactive: 0.033,inactive: 0.012,inactive: -0.064,inactive: -0.025,inactive: -0.01,inactive: 0.044,inactive: -0.021
UFM1 isoform 2 (UniProt P61960),inactive: 0,inactive: 0.044,–,inactive: -0.158,inactive: 0.022,inactive: -0.065,inactive: -0.114,inactive: -0.024,inactive: 0.01,inactive: -0.082
UFL1 (UniProt O94874),inactive: -0.033,inactive: -0.035,–,inactive: 0.076,inactive: 0.018,inactive: -0.045,inactive: 0.1,inactive: 0,inactive: 0.121,inactive: -0.119
USP11 (UniProt P51784),inactive: -0.045,inactive: -0.166,inactive: 0.328,–,–,–,–,inactive: 0.041,–,–
USP24 (UniProt Q9UPU5),inactive: 0.033,inactive: 0.092,–,inactive: -0.143,inactive: 0.034,inactive: -0.079,inactive: -0.03,inactive: 0.278,inactive: 0.048,inactive: -0.034
UGDH (UniProt O60701),inactive: -0.036,active: -0.284,–,inactive: 0.004,inactive: -0.085,inactive: -0.209,inactive: -0.089,inactive: 0.074,inactive: 0.087,inactive: -0.038
USP15 (UniProt Q9Y4E8),inactive: -0.013,inactive: -0.093,–,inactive: 0.014,inactive: 0.049,inactive: -0.093,inactive: 0.032,inactive: 0.019,inactive: 0.061,inactive: -0.031
UBE4A isoform 2 (UniProt Q14139),inactive: -0.024,inactive: -0.148,–,inactive: -0.009,inactive: 0.006,inactive: -0.017,inactive: 0.021,inactive: -0.079,inactive: 0.03,inactive: -0.078
USP25 isoform 3 (UniProt Q9UHP3),inactive: 0.045,inactive: -0.003,–,inactive: 0.061,inactive: 0.044,inactive: -0.045,inactive: 0.019,inactive: -0.028,inactive: 0.01,inactive: -0.033
UBIAD1 (UniProt Q9Y5Z9),inactive: 0.003,inactive: 0.208,–,inactive: -0.078,inactive: 0.054,inactive: 0.002,active: 0.473,inactive: -0.053,inactive: -0.035,inactive: -0.039

# Source: the supplement of paper PMC10849652
